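Luminescence from an EWS-FLI1 target-promoter (NR0B1) reporter, set against a CMV-promoter reporter, two days after silencing single genes in TC32 Ewing sarcoma cells. Each siRNA was applied at 20 nM. A z-score of the log NR0B1-over-CMV signal, less the median of siRNAs with the same seed; more negative means a stronger specific loss of the NR0B1 reporter.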

The strongest results of the screen are mostly left out here. Sequences are the guide (antisense) strand, without overhang.

For UUAAUAGUCUGAGCACUUG against RFX8 the result was seed-corrected z-score 1.06.
For AAUCUUUCUAGGAAUUCUU against IL21 the result was seed-corrected z-score 0.02861.
For UCUGUAACACUCUUGUCUC against APAF1 the result was seed-corrected z-score 0.4732.
For UUGACUGUCACAAUGAGCU against LOC729856 the result was seed-corrected z-score 0.794.
For UCUUGGACCAAUAGCAACU against TSPAN32 the result was seed-corrected z-score 0.2943.
For UGGGUUUGGAAGGAGAUCC against PLPPR1 the result was seed-corrected z-score 0.6224.
For AUACAGUAGGCAACUAACA against DEFB134 the result was seed-corrected z-score 1.063.
For AAUGACUCUAUGGAUACCC against ANKRD31 the result was seed-corrected z-score -0.2881.
For UAAGGUGUUAAACUGAUUU against ANK1 the result was seed-corrected z-score 0.02765.
For AUCUUCAUCAGGUAGUCGG against ACTA1 the result was seed-corrected z-score -1.251.
For UUGGAUACGAUGCCUUUCC against LOC338963 the result was seed-corrected z-score -0.3499.
For AUAGUGCUGAGCAAUCUUG against ATG3 the result was seed-corrected z-score 0.04168.
For UUAAUGAUCGGCUCACGUC against PROCA1 the result was seed-corrected z-score 0.3679.
For UCAGCUUCAAUUGCUCCAG against OTUD6B the result was seed-corrected z-score -1.546.
For UGAUUGGAUCGGAUCUUCC against IQGAP3 the result was seed-corrected z-score -0.05689.
For UUCGGGAUAAUCUGUACCG against B4GALT6 the result was seed-corrected z-score 0.109.
For UAGGCCUUAAGUGAGCUGC against VPS18 the result was seed-corrected z-score -0.2555.
For AAACUUCCACGCUACAGCC against DOHH the result was seed-corrected z-score -0.1887.
For UUUAUAUCCUUUGCAGCAC against CCBE1 the result was seed-corrected z-score 0.1017.
For AAUAAUCACAUCUUCAUUG against PAIP2 the result was seed-corrected z-score 0.005019.
For UUCUUGUAAACAUACGAAG against GUCY2C the result was seed-corrected z-score 0.7436.
For UAUAUAUCAUCGUAGUACC against EAPP the result was seed-corrected z-score 0.07864.
For UUGCAAACUGCCGUGAUGG against RORB the result was seed-corrected z-score -1.191.
For UCUGAUGAAAGUGUCAGGC against GPC6 the result was seed-corrected z-score 0.1405.
For UAACUGAUGCUUACACUUU against CHCHD2P6 the result was seed-corrected z-score -0.1186.
For UUCUCCACGACAUUGAGGC against PGAP2 the result was seed-corrected z-score -0.2893.
For AAACUUGCCUCCAAUGAUC against TMC5 the result was seed-corrected z-score -0.6119.

For reference, 2 entries once more:

For UUGCAAACUGCCGUGAUGG against RORB the result was seed-corrected z-score -1.191.
For AUACAGUAGGCAACUAACA against DEFB134 the result was seed-corrected z-score 1.063.

Source: PubChem BioAssay AID1159506 (NCATS, 2015).